From paper PMC6143631 (Nature Communications, 2018)
Where a chain is given by its changes, count along the chain named. Results are given in words; binding and its absence hold for the method and conditions named. In cells and extracts the contact can be indirect. Some binding calls cover weakened binding; strength is not graded here. Tags and fused reporters may be left off the sequences shown. Each block holds one molecule with its values, some of them ahead of it.

Assays:
Assay in all cases: co-IP; HEK293T co-transfected with the yeast Paf1C subunits (GFP-Ctr9 or GFP-Paf1 as bait, the others Myc-tagged); agarose-conjugated anti-GFP, blot with anti-Myc
[1] = molecular target: T1, GFP-Ctr9 (S. cerevisiae) (UniProt P89105)
T1 sequence: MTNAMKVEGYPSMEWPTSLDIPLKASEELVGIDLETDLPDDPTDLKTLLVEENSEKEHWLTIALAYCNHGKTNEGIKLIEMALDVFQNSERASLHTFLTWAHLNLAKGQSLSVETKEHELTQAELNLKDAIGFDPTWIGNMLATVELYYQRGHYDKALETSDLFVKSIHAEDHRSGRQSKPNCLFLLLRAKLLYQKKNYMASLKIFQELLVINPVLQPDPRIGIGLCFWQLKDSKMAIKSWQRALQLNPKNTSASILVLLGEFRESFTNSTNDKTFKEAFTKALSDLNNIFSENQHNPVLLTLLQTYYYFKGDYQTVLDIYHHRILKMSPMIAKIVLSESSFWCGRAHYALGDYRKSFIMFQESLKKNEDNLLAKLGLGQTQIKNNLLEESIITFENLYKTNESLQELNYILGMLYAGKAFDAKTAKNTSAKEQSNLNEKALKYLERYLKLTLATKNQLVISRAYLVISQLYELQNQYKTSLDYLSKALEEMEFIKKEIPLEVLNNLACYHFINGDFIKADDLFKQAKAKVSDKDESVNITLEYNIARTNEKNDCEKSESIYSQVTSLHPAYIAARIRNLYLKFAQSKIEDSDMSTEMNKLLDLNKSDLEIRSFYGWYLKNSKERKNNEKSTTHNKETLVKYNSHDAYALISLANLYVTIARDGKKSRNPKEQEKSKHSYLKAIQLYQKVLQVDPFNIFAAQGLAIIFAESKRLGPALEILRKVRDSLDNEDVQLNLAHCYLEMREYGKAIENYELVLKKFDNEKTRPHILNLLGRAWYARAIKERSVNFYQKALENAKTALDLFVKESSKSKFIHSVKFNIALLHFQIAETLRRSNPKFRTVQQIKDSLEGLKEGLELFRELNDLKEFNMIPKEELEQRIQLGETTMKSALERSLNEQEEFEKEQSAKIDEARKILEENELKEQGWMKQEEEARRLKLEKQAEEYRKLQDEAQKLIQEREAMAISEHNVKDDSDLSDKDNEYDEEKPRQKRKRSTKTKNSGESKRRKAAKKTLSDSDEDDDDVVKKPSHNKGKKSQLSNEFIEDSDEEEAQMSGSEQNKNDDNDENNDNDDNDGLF

[2] = molecular target: T2, GFP-Paf1 (S. cerevisiae) (UniProt P38351)
T2 sequence: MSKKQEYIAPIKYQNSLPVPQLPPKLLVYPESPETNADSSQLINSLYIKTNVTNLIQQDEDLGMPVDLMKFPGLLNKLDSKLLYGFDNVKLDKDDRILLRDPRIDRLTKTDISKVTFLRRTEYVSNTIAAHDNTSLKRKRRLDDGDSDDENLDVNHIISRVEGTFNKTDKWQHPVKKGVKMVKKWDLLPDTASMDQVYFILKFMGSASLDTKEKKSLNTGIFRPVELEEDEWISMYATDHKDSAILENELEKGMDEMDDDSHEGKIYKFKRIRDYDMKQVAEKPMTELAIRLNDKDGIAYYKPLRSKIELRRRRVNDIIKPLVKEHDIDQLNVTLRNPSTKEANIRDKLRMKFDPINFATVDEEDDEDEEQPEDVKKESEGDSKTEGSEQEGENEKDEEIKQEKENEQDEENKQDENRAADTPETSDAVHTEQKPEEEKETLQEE

[3] = molecular target: T3, GFP-Paf1(L83S) (S. cerevisiae) (UniProt P38351)
T3 sequence: T2 sequence with L83S

binding [1]: binds
binding [2]: binds
binding [3]: binds
Molecule: 13×Myc-Rtf1 (from UniProt P53064 1-558)

binding [1]: binds
binding [2]: binds
binding [3]: binds
B1: Myc-Cdc73 (protein, UniProt Q06697 1-393)
chain: MANSLDRLREHLKNGDKLVLKNNEGQSTDDITKATMVETLSSDGSTQDSFPLNEETEIEIDGSLVQLRIIVHCWMNKDSSAADYLADCQNKQLTNVSFLQRTDLINWLSGNTESSQYLKAPGQKGETSDKVDIENKTLAGELSTVKSTTSASLENDSEVSDPVVVETMKHERILVDHNSALRGAKPINFGYLIKDAELKLVQSIKGSLRGSKLPPGHKGAHGRISKTNGSSGGPRKDPIILIPSAASSILTVANIKQFLLESKYVNPRNLPSVPNGLVNIEKNFERISRPIRFIIVDNTRMFTKPEYWDRVVAIFTTGHTWQFNNYQWNSPQELFQRCKGYYFHFAGDSVPQHVQQWNVEKVELDKNKRFKDVEVVRYFWHSLEKELISRGYR

binding [2]: binds
binding [3]: binds
B2: Myc-Ctr9 (protein, UniProt P89105 1-1077)
chain: T1 sequence
